{"source": "PubChem BioAssay AID743454 (Peter MacCallum Cancer Centre, 2014)", "aim": "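Search for knock-downs that restore vorinostat killing in resistant colon cancer cells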 (primary screen)", "system": "human HCT116-VR colon cancer cells, selected for vorinostat resistance", "knock-down reagent": "siRNA pool against human genes, 40 nM siRNA pool", "duration": "vorinostat for 24 h, read-out about 72 h after transfection", "conditions": "vorinostat at 2.5 µM final", "measurement": "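Two measures, CellTiter-Fluor viability and luminescent caspase 3/7 activity, each as fold change against same-plate mock wells, mean of duplicates, then screen-wide robust z-score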", "scale": "viability robust z-score: higher = more viable cells than screen typical; caspase robust z-score: higher = more caspase 3/7 activity than screen typical", "hit rule": "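a knock-down is a hit when classed RV1 or RV2 for lowered viability, or CA1 or CA2 for caspase activation; those lethal without drug were dropped; hits were retested singly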", "note": "Here is one part, drawn at random, of about 18,000 reagents tested. 450 of all reagents (2.5%) were called active. 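Single biological run; no consistent viability z cut-off exists, so the class columns, not z-scores, define the calls.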 Reagents against one gene are numbered here. Reagent sequences are not shown."}
{"target gene": "SHLD2", "reagent": 1, "viability hit class": "no change", "caspase hit class": "no change", "viability robust z-score": 0.27, "caspase robust z-score": -0.52, "Call": "inactive"}
{"target gene": "ACTL8", "reagent": 1, "viability hit class": "no change", "caspase hit class": "no change", "viability robust z-score": 0.25, "caspase robust z-score": -0.08, "Call": "inactive"}
{"target gene": "TOMM20", "reagent": 1, "viability hit class": "no change", "caspase hit class": "no change", "viability robust z-score": -1.31, "caspase robust z-score": 2.34, "Call": "inactive"}
{"target gene": "TAF13", "reagent": 1, "viability hit class": "no change", "caspase hit class": "no change", "viability robust z-score": 0.74, "caspase robust z-score": 0.82, "Call": "inactive"}

The list goes on; the last 2 above are carried over.
{"target gene": "TOMM20", "reagent": 1, "viability hit class": "no change", "caspase hit class": "no change", "viability robust z-score": -1.31, "caspase robust z-score": 2.34, "Call": "inactive"}
{"target gene": "TAF13", "reagent": 1, "viability hit class": "no change", "caspase hit class": "no change", "viability robust z-score": 0.74, "caspase robust z-score": 0.82, "Call": "inactive"}
{"target gene": "CCL3L1", "reagent": 1, "viability hit class": "no change", "caspase hit class": "no change", "viability robust z-score": -0.04, "caspase robust z-score": -0.45, "Call": "inactive"}
{"target gene": "RBM45", "reagent": 1, "viability hit class": "no change", "caspase hit class": "no change", "viability robust z-score": 0.31, "caspase robust z-score": -0.72, "Call": "inactive"}
{"target gene": "RASAL2", "reagent": 1, "viability hit class": "no change", "caspase hit class": "CA2 (caspase activation)", "viability robust z-score": -1.45, "caspase robust z-score": 5.75, "Call": "active"}
{"target gene": "PRELID1", "reagent": 1, "viability hit class": "no change", "caspase hit class": "no change", "viability robust z-score": 0.32, "caspase robust z-score": 0.43, "Call": "inactive"}
{"target gene": "MYO10", "reagent": 1, "viability hit class": "no change", "caspase hit class": "no change", "viability robust z-score": 1.19, "caspase robust z-score": -0.98, "Call": "inactive"}
{"target gene": "ERH", "reagent": 1, "viability hit class": "RV2 (reduced viability)", "caspase hit class": "no change", "viability robust z-score": -3.6, "caspase robust z-score": -0.52, "Call": "active"}
{"target gene": "TOMM22", "reagent": 1, "viability hit class": "no change", "caspase hit class": "no change", "viability robust z-score": 0.55, "caspase robust z-score": -0.04, "Call": "inactive"}
{"target gene": "SZT2", "reagent": 1, "viability hit class": "no change", "caspase hit class": "no change", "viability robust z-score": 2.34, "caspase robust z-score": -0.27, "Call": "inactive"}
{"target gene": "SZT2", "reagent": 2, "viability hit class": "no change", "caspase hit class": "no change", "viability robust z-score": -0.78, "caspase robust z-score": 0.32, "Call": "inactive"}
{"target gene": "AIPL1", "reagent": 1, "viability hit class": "no change", "caspase hit class": "no change", "viability robust z-score": 0.2, "caspase robust z-score": -0.51, "Call": "inactive"}
